Results reported in US20190106509A1 (PROTHIX B V, published 2019).
These are yes or no findings as the source states them, for the method shown.

Target: tPA
Experiment: ELISA: tPA coated, detection with peroxidase-conjugated anti-mouse IgG and OPD, OD at 490 nm

B1: mouse mAb anti-FXI 34.2 (antibody, V domains shown)
VH: QVQLQQPGSELVRPGASVKLSCKASGYTFTRYWMHWVKQRHGQGLEWIGNIYPDSDSTNYDEKFRTKATLTADTSSSTAYMHLSSLTSEDSAVYYCTRMGFYAMDYWGQGTSVTVSS
VL: NIVMTQSPKSMSMSVGERVTLSCKASENVVTYVSWFQHKPEQSPKLLIYGASNRYTGVPDRFTGSGSATDFTLTISSVQAEDLADYHCGQSYSYPLTFGAGTKLELKR
notes: Mouse IgG purified from hybridoma supernatant by protein G
  binding: no binding
